This assay addresses Bovine serum albumin (bovine) (UniProt P02769). The assay can be described thus: native gel or EMSA.

The chains behind the UniProt entries cited, without tags or fusion partners. Residues count along the entry.
UniProt P02769, residues 25-607: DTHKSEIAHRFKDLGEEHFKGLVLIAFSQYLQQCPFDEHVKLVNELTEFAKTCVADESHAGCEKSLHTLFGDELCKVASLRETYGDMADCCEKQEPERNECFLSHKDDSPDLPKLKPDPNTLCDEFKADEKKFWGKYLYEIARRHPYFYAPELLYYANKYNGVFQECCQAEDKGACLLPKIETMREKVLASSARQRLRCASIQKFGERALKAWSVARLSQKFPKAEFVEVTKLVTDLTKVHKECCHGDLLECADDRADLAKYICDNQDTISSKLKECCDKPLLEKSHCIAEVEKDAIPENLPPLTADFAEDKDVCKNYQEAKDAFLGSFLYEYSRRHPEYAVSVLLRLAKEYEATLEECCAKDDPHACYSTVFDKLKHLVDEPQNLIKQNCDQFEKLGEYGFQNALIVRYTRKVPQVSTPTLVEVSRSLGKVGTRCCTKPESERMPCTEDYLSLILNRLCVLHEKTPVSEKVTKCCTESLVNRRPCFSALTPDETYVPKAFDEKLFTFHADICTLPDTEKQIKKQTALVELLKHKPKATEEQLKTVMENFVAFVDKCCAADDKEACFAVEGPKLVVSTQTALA

For 1 substance, binding results are on record in article doi:10.1101/152272.

These are yes or no findings as the source states them, for the method shown. Some results given as binding are weak or reduced against the parent protein; the word gives no strength.

In the case of “Bovine serum albumin (from UniProt P02769 25-607)”, the binding entry is recorded as “binds weakly”.
